According to PubChem BioAssay AID590 (National Center for Advancing Translational Sciences (NCATS), 2007):
Values joined by “and” are separate entries in the source; they are usually repeats but may differ in a detail not shown here. Identical values can stand only once. In all, about 59,000 compounds went through this assay and about 6,500 (11%) were called active. Inconclusive means that the source gave no clear call. Such entries were picked first, then a sample of the others. Rule as the data show it: active = max dye-equivalent concentration above about 10 nM; inconclusive = mostly about 1.1 nM to 9.6 nM; inactive = weaker than that. Some compounds were tested as several samples or in several runs, with calls that do not always agree.

Assay: qHTS Assay for Spectroscopic Profiling in A350 Spectral Region
Details: Compound autofluorescence, 340/450 nm, Alexa 350 dye-equivalents; stronger effect = higher value

Row | SMILES | max dye-equivalent concentration | outcome
1 | COc1ccc(CCNS(=O)(=O)c2ccccc2)cc1OC | inactive | 
2 | O=C(Cc1cccs1)N(Cc1ccco1)C1(C(=O)NC2CCCC2)CCCCC1 | inconclusive: 2.8e-09 M | 
3 | CCC(c1nnnn1Cc1ccco1)N(CCc1ccccc1)Cc1cc2cc(C)ccc2[nH]c1=O (centres undefined) | active: 1.2e-08 M | 
4 | O=C(c1ccco1)N1CCN(C(=O)c2cnn3cccnc23)CC1 | inconclusive: 6e-09 M | 
5 | Cc1ccnc(N2CCN(C(=O)CSc3nc4ccccc4nc3N3CCCCC3)CC2)c1 | active: 2.8e-08 M | 
6 | CN(C(=O)c1ccno1)c1nnc(-c2cnccn2)s1 | inconclusive: 5.4e-09 M | 
7 | CCN(CC)CCN1C(=O)C(=O)/C(=C(/O)c2ccc(C)cc2)C1c1cccnc1 (centres undefined) | inconclusive: 1.7e-09 M | 
8 | CCOc1ccc2nc(NC3=NCN(Cc4ccco4)CN3)nc(C)c2c1 | active: 3.2e-08 M | 
9 | COC(=O)C1=C(CN2CCc3ccccc32)NC(=O)NC1c1cc(C)ccc1C (centres undefined) | inactive | 
10 | COc1ccc2c(c1OC)C(=O)N(c1ccc3c(c1)CCC3)C2=O | inconclusive: 1.2e-09 M | 
11 | CCOC(=O)C1=C(C)Nc2nc(SCC)[nH]c(=O)c2C1c1ccncc1 (centres undefined) | active: 1.4e-08 M | 
12 | COC(=O)/C=c1/sc2n(c1=O)CCN=2 | inconclusive: 7.7e-09 M | 
13 | Clc1ccccc1CN1CCc2sccc2C1 | active: 1.2e-06 M and inconclusive: 2.8e-09 M | inactive
14 | CCCc1nc2n[nH]c(N)c2c2c1CCC2 | inconclusive: 2.5e-09 M | 
15 | O=C(O)CCc1ccc(-c2ccccc2)n1NC(=O)c1ccco1 | active: 2.6e-08 M | 
16 | CCOC(=O)c1cnc(-n2nc(C)cc2C)nc1N1CCOCC1 | inconclusive: 1.7e-09 M | 
17 | Cc1nc2nc(C)c(CCC(=O)Nc3ccc4c(c3)OCO4)c(C)n2n1 | inconclusive: 2.7e-09 M | 
18 | O=C(O)c1cc(NCc2ccccc2C(F)(F)F)ccc1N1CCOCC1 | inconclusive: 1.8e-09 M | 
19 | CN1C(=O)c2ccc(N3CCCC3)cc2C1=O | inconclusive: 2.3e-09 M | 
20 | O=c1cc(N2CCN(Cc3ccccc3)CC2)[nH]c(=O)n1-c1cccc(C(F)(F)F)c1 | inconclusive: 3.5e-09 M | 
21 | C=CCn1c(SCc2cc(=O)n3ccsc3n2)nc2scc(C3CC3)c2c1=O | inactive | 
22 | CN(C)c1cccc(C(=O)OCC(=O)NCc2ccco2)c1 | inconclusive: 1.5e-09 M | 
23 | CN(C)CCCN1c2ccccc2CCc2ccc(Cl)cc21 | inconclusive: 4.4e-09 M | 
24 | CN(C)c1ncc2nc(-c3cc(F)cc(F)c3)c(=O)n(Cc3ccc(F)cc3)c2n1 | inconclusive: 8e-09 M | 

Row | SMILES | max dye-equivalent concentration | outcome
25 | COC(=O)c1cccc(Nc2cc(C)nc(-c3ccccc3O)n2)c1 | inconclusive: 1.3e-09 M | 
26 | CCCCC(=O)NC(Nc1ccc(C)cn1)(C(=O)OCC)C(F)(F)F (centres undefined) | inconclusive: 2.6e-09 M | 
27 | c1ccc(Cc2nn3c(Cn4cnc5ccccc54)nnc3s2)cc1 | inconclusive: 1.5e-09 M | 
28 | COc1cc(-c2noc(-c3ccco3)n2)cc(OC)c1OC | inactive | 
29 | Cc1cc(NC(=O)C2=C(O)c3ccccc3S(=O)(=O)N2C)no1 | inconclusive: 3.6e-09 M | 
30 | Cc1cccc(N(C)S(=O)(=O)c2ccc3[nH]c(=O)c(=O)[nH]c3c2)c1 | inactive | 
31 | COCCn1c(=O)c(-c2cc(F)cc(F)c2)nc2cnc(Nc3cccc(OC)c3)nc21 | inactive | 
32 | Cc1ccc(C(N)=Nc2ccccc2)cc1 | inactive | 
33 | Cc1cccc(CNc2ncnc3[nH]ncc23)c1 | inconclusive: 1.6e-09 M | 
34 | c1cc(-c2sc(-c3ccncc3)c(-c3ccncc3)c2-c2ccncc2)ccn1 | active: 1.3e-07 M | 
35 | CC(C)(C)NC(=O)C(c1ccco1)N(C(=O)Cn1nnc(-c2ccc(F)cc2)n1)c1ccccc1F (centres undefined) | inactive | 
36 | CCOc1ccc(C2CC(c3ccccc3)Nc3nc(N)nn32)cc1 (centres undefined) | inconclusive: 1.1e-09 M | 
37 | Cc1cc(C(C)(C)CC(C)(C)C)ccc1OCCOCC[N+](C)(C)Cc1ccccc1 | inactive | 
38 | Cc1nc(NCCN2CCOCC2)c2oc3ccccc3c2n1 | inactive | 
39 | CCCCNc1nc2ccccc2nc1NS(=O)(=O)c1cccs1 | active: 6.1e-08 M | 
40 | CCC(=O)N1CCc2cc(S(=O)(=O)CCC(=O)Nc3nc(C)cs3)ccc21 | inactive | 
41 | O=C(CSc1nc2ncccc2[nH]1)Nc1ccc2c(c1)OCCO2 | inactive | 
42 | CCOC(=O)N1CCN(C(=O)c2ccc3c(c2)ncn3C2CCCC2)CC1 | inconclusive: 6.7e-09 M | 
43 | Cn1c(=N)n(CC(O)c2cccc3ccccc23)c2ccccc21 (centres undefined) | inactive | 
44 | Cc1ccc(NC(=O)N2CCC(C(N)=O)CC2)cc1 | inconclusive: 4.1e-09 M | 
45 | COc1ccc(CC(=O)N2CCN(c3ccccn3)CC2)cc1OC | inactive | 
46 | O=C(NCCN1CCCCC1)c1cc2ccccc2[nH]1 | inconclusive: 1.4e-09 M | 
47 | CCN(CC)C(=O)c1cc2cc(Br)ccc2oc1=O | inactive | 
48 | CCC(=O)N1c2ccccc2[C@@H](N(C(C)=O)c2ccccc2)C[C@H]1C | inconclusive: 5.7e-09 M | 

Row | SMILES | max dye-equivalent concentration | outcome
49 | O=C(c1cc(-c2ccncc2)nc2ccccc12)N1CCN(c2ccc(N3CCOCC3)nn2)CC1 | inconclusive: 2.5e-09 M | 
50 | Cc1cc(=O)c2n(Cc3ccc(Cl)cc3)nc[n+]2[nH]1 | inconclusive: 3.2e-09 M | 
51 | CCOC(=O)CCCN | inactive | 
52 | CCOc1ccc(OCc2ccc(C(=O)NCc3ccncc3)o2)cc1 | inconclusive: 1.2e-09 M | 
53 | CCOc1ccc2cc(C#N)c(SCC(=O)N3CCCC3)nc2c1 | active: 1e-07 M | 
54 | CCn1c(Cn2nnc(-c3ccccc3)n2)nnc1SCC(=O)Nc1ccc(N(C)C)cc1 | inactive | 
55 | CC1(C)CC(=O)C2=C(C1)N(CC1CCCO1)C(=O)C2(NC(=O)c1cccnc1)C(F)(F)F (centres undefined) | inactive | 
56 | CCOC(=O)C1CCN(Cc2ccccc2C(F)(F)F)CC1 | inconclusive: 9.7e-09 M | 
57 | CCCN1Cc2cccc(C(=O)NCc3ccccc3)c2C1=O | inactive | 
58 | CCc1nnc(NC(=O)c2ccc(NS(=O)(=O)c3ccccc3)cc2)s1 | active: 1.6e-08 M | 
59 | COc1cc2c(cc1OC)C1=C(C#N)CCC(=O)N1CC2 | inconclusive: 1.3e-09 M | 
60 | CC(C)COC[C@H](CN(Cc1ccccc1)c1ccccc1)N1CCCC1 | inconclusive: 3.4e-09 M | 
61 | CCCCCSc1nc2c(cnn2-c2ccccc2)c(=O)[nH]1 | inactive | 
62 | COc1nc(-c2ccccc2)ccc1-c1noc(-c2ccco2)n1 | inconclusive: 2e-09 M | 
63 | Cc1ccc(-c2nnc3ccc(SCC(=O)N4CCCCC4)nn23)cc1 | inconclusive: 1.3e-09 M | 
64 | COc1cccc(-c2nc(NCc3ccccc3)c3ccccc3n2)c1 | inactive | 
65 | Nc1cccc2cc(S(=O)(=O)Nc3ccc(C(=O)O)cc3)ccc12 | inconclusive: 2.1e-09 M | 
66 | CCN1CCc2c(C#N)c(N3CCCCC3)nc(NCc3ccccc3)c2C1 | active: 5e-08 M | 
67 | O=C(CSc1nnc(-c2ccncc2)n1-c1ccc(Cl)cc1)N1CCOCC1 | active: 1.2e-08 M | 
68 | CN(CC(=O)NC1CCCCCC1)S(=O)(=O)c1ccccc1 | inconclusive: 3.7e-09 M | 
69 | O=C(NCc1ccccc1)N1CCC(c2nc3ccccc3[nH]2)CC1 | inactive | 
70 | Cc1ccc(S(=O)(=O)c2cc3c(=O)n4cccc(C)c4nc3n(CC3CCCO3)c2=N)cc1 (centres undefined) | active: 2.6e-08 M | 
71 | Cn1c(=O)c2c(-c3ccccc3)n3c4ccccc4ncc3c2n(C)c1=O | active: 2e-06 M | 
72 | O=C(CCn1c(=S)[nH]c2cc3c(cc2c1=O)OCO3)NCCN1CCCC1 | inconclusive: 2.8e-09 M | 

Row | SMILES | max dye-equivalent concentration | outcome
73 | CCn1c(=NC(=O)CSC(C)=O)sc2ccccc21 | inconclusive: 4.2e-09 M | 
74 | Cc1ccc(CNC(=O)c2cn(C3CCCCC3)c(=O)c3c2c2ccccc2n3C)o1 | active: 3.1e-08 M | 
75 | CCCCN1Cc2cc(C(=O)c3cc(F)ccc3O)cnc2NC1=O | active: 1.5e-08 M | 
76 | S=C(NC1CCCCC1)N1CCC([C@H]2C=NC=N2)CC1 | inactive | 
77 | CCOC(=O)C1CCN(C(=O)Nc2ccc3nc(C)c(C)nc3c2)CC1 | active: 2.7e-06 M | 
78 | N#Cc1ccc(CN2CC3(CCN(C(=O)c4cnccn4)CC3)C2)cc1 | inactive | 
79 | O=C(c1cnccn1)N1CCC2(CC1)CN(Cc1ccccc1)C2 | inactive | 
80 | COc1cc2c(CCNC(C)=O)c[nH]c2cc1O | inconclusive: 1.3e-09 M | 
81 | N#Cc1nc(Cc2ccccc2)oc1N1CCN(c2ccccc2)CC1 | inactive | 
82 | CC(=O)C1=C(O)C(=O)N(c2ccc(C(=O)O)cc2)C1c1ccccc1 (centres undefined) | inconclusive: 6.3e-09 M | 
83 | Cc1cc(Cl)c(S(=O)(=O)Nc2ccon2)cc1OCC(=O)NC1CCCCC1 | inconclusive: 3.6e-09 M | 
84 | CCOC(=O)C1CCN(C(=O)COc2ccc(S(=O)(=O)NC(C)C)cc2Cl)CC1 | inactive | 
85 | CC(=O)N1CCc2cc(S(=O)(=O)NCCC3=CCCCC3)ccc21 | inactive | 
86 | CCOC(=O)Cc1csc(NS(=O)(=O)c2ccc3c4c(cccc24)C(=O)N3CC)n1 | inconclusive: 8.5e-09 M | 
87 | COc1ccc(Nc2ncnc3c2cnn3Cc2ccccc2)cc1 | inconclusive: 1.3e-09 M | 
88 | COc1ccc2c(c1)c1ncn(Cc3ccco3)c(=O)c1n2C | active: 1.1e-06 M | 
89 | CCN1C(=O)c2c(C)nc3ccccc3c2C1=O | inactive | 
90 | COC(=O)c1ccc2c(=O)n(CCO)c(=S)[nH]c2c1 | inconclusive: 2.4e-09 M | 
91 | CCOC(=O)C1=C(CSc2nc(C)cc(C)c2C#N)OC(N)=C(C#N)C1c1cccs1 (centres undefined) | inconclusive: 6.9e-09 M | 
92 | COc1ccc(CCN2CNc3c(c(=O)n(C)c(=O)n3C)C2)cc1 | inconclusive: 5.4e-09 M | 
93 | Cc1cc(C)c2[nH]c(=O)c(CN(CC3CCCO3)S(=O)(=O)c3ccc4c(c3)OCCO4)cc2c1 (centres undefined) | inconclusive: 9.2e-09 M | 
